These are yes or no findings as the source states them, for the method shown. In cells and extracts the contact can be indirect. Some entries that bind do so weakly or less than the wild type.
Legend:
[1] = molecular target: Transcription factor Sp1 (mouse (endogenous in PARP-1+/+ embryonic fibroblasts)) (UniProt O89090); assay: co-IP; as the Sp1 Ab precipitation from nuclear extract of PARP-1+/+ cells, with 100 ug/ml ethidium bromide in the reaction mixture to exclude bridging by DNA
[2] = molecular target: Transcription factor Sp1 (mouse (endogenous in PARP-1+/+ embryonic fibroblasts)) (UniProt O89090); assay: co-IP; Sp1 precipitated with Sp1 Ab (sc-59) and protein A-Sepharose from about 300 ug nuclear extract of PARP-1+/+ cells, overnight at 4°C, binding buffer (10 mM Tris-HCl, 20 mM MgCl2, 150 mM NaCl, 1 mM DTT, 10% glycerol, 1 mM PMSF); blot with PARP-1 Ab C-2-10; also with cells grown with H2O2 or PJ34 (interaction not altered)

The chains behind the UniProt entries cited, without tags or fusion partners.
UniProt O89090: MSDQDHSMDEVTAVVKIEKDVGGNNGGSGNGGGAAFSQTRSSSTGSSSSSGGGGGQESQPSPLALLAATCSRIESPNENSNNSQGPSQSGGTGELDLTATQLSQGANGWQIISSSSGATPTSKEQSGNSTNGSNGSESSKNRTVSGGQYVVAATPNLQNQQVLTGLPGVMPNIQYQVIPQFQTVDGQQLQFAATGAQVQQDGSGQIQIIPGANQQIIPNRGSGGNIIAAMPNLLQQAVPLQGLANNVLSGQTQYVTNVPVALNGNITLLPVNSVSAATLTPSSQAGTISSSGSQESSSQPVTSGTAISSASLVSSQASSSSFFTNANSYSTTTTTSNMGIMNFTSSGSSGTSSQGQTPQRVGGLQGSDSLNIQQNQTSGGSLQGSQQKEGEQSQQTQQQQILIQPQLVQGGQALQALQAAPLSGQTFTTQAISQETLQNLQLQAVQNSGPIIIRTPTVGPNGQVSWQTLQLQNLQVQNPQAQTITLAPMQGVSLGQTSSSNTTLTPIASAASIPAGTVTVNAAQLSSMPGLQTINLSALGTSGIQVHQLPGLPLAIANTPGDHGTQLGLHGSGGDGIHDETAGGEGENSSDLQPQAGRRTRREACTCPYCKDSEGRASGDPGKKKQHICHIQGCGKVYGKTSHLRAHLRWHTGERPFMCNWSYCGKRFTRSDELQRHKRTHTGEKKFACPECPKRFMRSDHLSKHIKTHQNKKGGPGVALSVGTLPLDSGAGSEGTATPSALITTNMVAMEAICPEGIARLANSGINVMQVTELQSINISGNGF
UniProt P11103: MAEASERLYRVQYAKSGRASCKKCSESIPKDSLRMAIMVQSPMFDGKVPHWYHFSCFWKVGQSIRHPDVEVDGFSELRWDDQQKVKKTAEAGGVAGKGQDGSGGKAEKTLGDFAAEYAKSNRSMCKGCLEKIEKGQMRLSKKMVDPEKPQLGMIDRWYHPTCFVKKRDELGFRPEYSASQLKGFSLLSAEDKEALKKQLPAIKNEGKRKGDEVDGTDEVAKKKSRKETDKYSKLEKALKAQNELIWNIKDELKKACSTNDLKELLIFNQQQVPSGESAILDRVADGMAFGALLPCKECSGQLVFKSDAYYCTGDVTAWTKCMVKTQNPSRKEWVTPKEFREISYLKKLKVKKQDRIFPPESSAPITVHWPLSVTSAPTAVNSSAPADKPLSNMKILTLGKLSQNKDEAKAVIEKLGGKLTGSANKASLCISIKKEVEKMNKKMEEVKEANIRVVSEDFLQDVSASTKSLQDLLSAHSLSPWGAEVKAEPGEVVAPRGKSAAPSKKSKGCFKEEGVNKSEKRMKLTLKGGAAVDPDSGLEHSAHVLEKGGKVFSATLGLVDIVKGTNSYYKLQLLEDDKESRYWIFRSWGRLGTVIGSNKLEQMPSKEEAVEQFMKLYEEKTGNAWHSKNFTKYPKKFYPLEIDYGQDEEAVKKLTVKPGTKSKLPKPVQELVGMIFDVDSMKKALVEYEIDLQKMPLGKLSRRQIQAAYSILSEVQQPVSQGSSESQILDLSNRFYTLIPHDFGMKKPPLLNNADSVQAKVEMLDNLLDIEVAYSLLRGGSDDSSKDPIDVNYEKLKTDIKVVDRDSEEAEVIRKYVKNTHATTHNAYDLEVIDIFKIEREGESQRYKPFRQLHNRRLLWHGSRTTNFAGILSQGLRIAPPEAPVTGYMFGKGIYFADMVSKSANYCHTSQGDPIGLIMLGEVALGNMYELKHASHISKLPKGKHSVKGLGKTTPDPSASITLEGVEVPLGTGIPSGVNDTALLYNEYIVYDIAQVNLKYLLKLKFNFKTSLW

Poly(ADP-ribose) polymerase-1 (PARP-1) (from UniProt P11103 1-1013) (enzyme)
binding [1]: binds
binding [2]: binds

— paper PMC2175517
